Measured values taken from article PMC9226498, “Structural basis for interaction between CLAMP and MSL2 proteins involved in the specific recruitment of the dosage compensation complex in Drosophila” (Nucleic Acids Research, 2022).
These are yes or no findings as the source states them, for the method shown. In cells and extracts the contact can be indirect. A result given as binding can be weak or reduced; the word gives no strength. Tags and fused reporters may be left off the sequences shown.

By UniProt entry, the sequences of proteins in these tests, tags left out. Where a name states a change or a piece, a line headed by the entry shows the natural chain unless it says otherwise.
UniProt P50534: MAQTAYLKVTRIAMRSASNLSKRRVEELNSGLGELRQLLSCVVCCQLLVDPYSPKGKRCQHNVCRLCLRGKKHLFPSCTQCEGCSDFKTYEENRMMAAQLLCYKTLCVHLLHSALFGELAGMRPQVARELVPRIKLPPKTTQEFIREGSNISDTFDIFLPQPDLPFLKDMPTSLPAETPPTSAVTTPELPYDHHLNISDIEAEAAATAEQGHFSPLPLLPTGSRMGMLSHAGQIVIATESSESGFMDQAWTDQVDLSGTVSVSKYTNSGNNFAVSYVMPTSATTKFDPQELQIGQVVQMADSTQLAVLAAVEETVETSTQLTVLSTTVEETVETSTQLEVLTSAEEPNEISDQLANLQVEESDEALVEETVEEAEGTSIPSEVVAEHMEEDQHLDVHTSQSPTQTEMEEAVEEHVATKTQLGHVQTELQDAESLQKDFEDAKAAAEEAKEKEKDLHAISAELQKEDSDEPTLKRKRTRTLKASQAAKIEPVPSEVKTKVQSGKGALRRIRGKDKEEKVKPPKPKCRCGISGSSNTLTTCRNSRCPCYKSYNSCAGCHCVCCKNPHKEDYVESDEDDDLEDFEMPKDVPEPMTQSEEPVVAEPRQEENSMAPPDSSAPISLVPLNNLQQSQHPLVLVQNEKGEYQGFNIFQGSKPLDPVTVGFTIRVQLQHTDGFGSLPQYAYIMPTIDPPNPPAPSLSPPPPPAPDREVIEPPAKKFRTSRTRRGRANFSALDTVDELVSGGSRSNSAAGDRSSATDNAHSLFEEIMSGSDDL

Key:
[1] = target: GST-tagged MSL2^618–655 L633A (Drosophila melanogaster) (UniProt P50534); assay: pull-down; GST-pulldown: GST-tagged MSL2 618–655 and 6xHis-thioredoxin-tagged CLAMP 1–153; performed as described in ref. 12
[2] = target: GST-tagged MSL2^618–655 V634A (Drosophila melanogaster) (UniProt P50534); assay: as above

B1: 6xHis-thioredoxin-tagged CLAMP^1–153 (domain or fragment, UniProt Q9V9N4 1-153)
chain: MEDLTKNIIFTNAINGQPATIQYQTADGTILKQPKIEGQKTEQQPTFYYTTNGNGGTVNLAQLATTDDNKTCYIAQPVGGYNYALVNGMPLNQGAALGIATVDAQGRIQIVNQNKPIAANTISNISFKCDVCSDMFPHLALLNAHKRMHTDGE
**Q.** For B1, which binding [1] is on record?
**A.** binds

**Q.** What about the binding [2] of the same binder?
**A.** binds
